The other results are listed elsewhere or left out. Most entries show no effect beyond the scatter of the controls.

Amino acid sequences for entries named in this document (tags omitted). A change or cut given only in a name is not applied to a line headed by its entry.
UniProt P22939: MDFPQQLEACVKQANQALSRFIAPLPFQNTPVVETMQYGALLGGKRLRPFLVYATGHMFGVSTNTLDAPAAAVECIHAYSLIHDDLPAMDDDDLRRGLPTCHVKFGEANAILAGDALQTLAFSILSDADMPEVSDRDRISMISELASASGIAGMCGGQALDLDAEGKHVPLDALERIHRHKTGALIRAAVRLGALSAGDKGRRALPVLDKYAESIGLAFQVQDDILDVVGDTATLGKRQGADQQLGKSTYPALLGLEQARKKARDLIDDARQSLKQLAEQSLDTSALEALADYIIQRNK
UniProt P11289: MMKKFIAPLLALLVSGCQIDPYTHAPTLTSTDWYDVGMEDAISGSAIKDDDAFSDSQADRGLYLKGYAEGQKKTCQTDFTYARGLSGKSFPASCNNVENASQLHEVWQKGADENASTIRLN
UniProt P21513: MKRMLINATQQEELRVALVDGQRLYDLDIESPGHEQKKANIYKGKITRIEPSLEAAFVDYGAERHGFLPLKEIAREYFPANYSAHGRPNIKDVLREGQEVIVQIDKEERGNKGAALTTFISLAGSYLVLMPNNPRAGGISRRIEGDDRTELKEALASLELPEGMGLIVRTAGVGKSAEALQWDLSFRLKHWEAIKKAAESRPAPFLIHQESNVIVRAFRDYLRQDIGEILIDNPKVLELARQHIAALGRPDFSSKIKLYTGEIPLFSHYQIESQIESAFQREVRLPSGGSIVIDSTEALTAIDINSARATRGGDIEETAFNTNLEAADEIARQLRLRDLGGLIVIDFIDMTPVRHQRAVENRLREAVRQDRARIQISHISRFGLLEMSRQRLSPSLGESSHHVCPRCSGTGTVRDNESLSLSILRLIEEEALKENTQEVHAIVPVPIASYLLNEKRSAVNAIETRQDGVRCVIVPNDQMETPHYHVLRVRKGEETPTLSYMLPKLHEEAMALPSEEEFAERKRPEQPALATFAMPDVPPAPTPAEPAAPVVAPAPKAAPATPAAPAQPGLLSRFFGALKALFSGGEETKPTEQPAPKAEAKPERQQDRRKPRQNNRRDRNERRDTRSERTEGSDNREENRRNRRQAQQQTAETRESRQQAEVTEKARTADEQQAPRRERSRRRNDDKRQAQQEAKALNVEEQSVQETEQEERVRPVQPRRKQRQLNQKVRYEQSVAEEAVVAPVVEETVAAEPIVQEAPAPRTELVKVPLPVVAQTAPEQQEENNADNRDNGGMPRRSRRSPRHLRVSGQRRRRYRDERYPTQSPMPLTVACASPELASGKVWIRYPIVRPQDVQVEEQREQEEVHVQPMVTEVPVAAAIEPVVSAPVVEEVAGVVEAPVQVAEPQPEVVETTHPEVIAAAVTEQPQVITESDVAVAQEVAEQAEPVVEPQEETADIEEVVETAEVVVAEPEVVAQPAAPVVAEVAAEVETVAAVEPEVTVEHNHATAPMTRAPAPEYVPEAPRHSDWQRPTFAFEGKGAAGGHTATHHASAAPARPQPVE
UniProt P19930: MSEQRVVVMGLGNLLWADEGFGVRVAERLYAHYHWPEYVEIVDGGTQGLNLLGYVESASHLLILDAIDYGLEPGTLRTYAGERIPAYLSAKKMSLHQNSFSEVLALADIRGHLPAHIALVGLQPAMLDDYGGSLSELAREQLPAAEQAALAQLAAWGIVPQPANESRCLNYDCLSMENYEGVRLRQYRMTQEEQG
UniProt P22256: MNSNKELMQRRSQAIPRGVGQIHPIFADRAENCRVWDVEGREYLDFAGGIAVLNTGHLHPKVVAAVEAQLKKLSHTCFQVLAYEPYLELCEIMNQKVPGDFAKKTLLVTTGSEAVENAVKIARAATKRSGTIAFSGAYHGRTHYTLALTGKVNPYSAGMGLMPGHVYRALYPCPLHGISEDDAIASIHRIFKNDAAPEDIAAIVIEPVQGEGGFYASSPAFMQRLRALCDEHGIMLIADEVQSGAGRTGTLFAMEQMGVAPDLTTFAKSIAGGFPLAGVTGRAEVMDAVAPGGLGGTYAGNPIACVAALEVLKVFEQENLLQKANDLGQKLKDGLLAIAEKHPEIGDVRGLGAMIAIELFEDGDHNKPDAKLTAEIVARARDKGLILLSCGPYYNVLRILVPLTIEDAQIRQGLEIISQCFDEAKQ
UniProt P22731: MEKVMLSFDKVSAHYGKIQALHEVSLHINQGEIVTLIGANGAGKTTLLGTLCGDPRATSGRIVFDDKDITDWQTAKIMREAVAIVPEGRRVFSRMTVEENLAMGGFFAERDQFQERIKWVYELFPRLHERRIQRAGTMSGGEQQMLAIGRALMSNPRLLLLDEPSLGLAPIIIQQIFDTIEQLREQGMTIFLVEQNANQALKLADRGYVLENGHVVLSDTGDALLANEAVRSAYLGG
UniProt P16700: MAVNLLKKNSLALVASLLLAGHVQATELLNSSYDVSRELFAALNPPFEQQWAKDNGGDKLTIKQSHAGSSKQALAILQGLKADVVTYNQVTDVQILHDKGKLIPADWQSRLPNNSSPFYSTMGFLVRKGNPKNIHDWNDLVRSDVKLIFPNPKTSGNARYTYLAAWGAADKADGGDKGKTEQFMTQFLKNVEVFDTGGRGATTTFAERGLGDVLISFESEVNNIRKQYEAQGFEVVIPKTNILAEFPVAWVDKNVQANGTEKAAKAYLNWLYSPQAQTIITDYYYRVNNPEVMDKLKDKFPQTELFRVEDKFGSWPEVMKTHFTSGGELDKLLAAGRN
UniProt P16682: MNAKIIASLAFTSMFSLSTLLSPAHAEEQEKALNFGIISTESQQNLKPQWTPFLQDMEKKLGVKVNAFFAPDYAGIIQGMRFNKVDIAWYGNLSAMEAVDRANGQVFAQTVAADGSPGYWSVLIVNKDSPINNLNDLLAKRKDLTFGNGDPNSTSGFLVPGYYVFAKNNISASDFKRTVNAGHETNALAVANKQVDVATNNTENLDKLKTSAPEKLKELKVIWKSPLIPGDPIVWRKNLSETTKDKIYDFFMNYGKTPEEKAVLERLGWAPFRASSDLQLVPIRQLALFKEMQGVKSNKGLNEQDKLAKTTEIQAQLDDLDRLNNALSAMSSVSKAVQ
UniProt P15288: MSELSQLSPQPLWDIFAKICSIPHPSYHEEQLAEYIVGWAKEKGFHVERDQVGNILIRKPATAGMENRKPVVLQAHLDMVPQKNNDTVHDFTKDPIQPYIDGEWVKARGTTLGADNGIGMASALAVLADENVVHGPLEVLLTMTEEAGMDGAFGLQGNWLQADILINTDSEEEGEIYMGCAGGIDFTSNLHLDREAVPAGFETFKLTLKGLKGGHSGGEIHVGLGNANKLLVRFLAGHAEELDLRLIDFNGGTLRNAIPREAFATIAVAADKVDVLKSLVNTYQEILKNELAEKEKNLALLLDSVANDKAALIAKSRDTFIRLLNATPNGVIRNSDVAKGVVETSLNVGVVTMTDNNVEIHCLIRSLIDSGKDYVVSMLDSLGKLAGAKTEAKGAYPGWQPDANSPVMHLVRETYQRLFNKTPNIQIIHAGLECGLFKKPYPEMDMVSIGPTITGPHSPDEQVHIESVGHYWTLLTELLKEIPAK
UniProt P14294: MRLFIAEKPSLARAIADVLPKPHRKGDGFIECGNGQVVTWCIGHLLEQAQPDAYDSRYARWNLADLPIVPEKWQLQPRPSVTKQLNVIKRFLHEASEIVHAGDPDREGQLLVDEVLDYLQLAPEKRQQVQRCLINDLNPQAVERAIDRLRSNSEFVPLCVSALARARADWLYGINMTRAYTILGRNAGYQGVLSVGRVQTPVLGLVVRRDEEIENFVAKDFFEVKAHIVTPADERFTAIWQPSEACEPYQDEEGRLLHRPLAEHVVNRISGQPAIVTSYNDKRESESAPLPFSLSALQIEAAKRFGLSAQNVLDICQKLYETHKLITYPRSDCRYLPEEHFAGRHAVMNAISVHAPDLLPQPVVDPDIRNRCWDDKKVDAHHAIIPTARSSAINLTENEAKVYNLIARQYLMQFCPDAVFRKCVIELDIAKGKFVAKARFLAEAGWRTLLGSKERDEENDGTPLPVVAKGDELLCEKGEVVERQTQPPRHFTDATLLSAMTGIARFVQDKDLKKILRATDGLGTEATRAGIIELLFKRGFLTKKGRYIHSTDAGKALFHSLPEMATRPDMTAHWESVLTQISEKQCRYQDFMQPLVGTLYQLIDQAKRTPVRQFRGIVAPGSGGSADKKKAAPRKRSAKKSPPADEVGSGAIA
UniProt P0DSF4: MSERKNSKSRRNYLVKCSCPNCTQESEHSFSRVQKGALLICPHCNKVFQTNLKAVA
UniProt P15032: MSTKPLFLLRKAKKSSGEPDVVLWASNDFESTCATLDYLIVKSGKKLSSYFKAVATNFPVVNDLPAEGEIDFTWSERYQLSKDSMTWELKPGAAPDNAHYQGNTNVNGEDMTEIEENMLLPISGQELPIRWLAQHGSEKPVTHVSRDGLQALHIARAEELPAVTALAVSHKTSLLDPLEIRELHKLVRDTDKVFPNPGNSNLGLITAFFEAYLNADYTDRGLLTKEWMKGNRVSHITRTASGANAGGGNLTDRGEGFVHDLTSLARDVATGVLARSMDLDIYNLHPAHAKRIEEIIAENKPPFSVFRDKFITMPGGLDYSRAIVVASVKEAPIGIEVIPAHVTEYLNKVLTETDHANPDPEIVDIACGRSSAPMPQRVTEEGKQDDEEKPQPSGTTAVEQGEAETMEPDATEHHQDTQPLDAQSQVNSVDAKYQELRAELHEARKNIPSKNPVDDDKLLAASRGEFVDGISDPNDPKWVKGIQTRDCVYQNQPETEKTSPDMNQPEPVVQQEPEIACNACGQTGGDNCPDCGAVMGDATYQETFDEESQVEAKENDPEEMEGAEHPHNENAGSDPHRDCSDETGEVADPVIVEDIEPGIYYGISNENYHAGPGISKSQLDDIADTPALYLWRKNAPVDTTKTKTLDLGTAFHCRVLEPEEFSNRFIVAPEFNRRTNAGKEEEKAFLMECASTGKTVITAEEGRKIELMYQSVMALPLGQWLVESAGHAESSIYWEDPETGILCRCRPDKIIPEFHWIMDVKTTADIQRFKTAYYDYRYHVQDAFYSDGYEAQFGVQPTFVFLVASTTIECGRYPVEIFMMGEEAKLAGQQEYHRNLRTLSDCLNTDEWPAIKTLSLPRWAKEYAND
UniProt P0CK95: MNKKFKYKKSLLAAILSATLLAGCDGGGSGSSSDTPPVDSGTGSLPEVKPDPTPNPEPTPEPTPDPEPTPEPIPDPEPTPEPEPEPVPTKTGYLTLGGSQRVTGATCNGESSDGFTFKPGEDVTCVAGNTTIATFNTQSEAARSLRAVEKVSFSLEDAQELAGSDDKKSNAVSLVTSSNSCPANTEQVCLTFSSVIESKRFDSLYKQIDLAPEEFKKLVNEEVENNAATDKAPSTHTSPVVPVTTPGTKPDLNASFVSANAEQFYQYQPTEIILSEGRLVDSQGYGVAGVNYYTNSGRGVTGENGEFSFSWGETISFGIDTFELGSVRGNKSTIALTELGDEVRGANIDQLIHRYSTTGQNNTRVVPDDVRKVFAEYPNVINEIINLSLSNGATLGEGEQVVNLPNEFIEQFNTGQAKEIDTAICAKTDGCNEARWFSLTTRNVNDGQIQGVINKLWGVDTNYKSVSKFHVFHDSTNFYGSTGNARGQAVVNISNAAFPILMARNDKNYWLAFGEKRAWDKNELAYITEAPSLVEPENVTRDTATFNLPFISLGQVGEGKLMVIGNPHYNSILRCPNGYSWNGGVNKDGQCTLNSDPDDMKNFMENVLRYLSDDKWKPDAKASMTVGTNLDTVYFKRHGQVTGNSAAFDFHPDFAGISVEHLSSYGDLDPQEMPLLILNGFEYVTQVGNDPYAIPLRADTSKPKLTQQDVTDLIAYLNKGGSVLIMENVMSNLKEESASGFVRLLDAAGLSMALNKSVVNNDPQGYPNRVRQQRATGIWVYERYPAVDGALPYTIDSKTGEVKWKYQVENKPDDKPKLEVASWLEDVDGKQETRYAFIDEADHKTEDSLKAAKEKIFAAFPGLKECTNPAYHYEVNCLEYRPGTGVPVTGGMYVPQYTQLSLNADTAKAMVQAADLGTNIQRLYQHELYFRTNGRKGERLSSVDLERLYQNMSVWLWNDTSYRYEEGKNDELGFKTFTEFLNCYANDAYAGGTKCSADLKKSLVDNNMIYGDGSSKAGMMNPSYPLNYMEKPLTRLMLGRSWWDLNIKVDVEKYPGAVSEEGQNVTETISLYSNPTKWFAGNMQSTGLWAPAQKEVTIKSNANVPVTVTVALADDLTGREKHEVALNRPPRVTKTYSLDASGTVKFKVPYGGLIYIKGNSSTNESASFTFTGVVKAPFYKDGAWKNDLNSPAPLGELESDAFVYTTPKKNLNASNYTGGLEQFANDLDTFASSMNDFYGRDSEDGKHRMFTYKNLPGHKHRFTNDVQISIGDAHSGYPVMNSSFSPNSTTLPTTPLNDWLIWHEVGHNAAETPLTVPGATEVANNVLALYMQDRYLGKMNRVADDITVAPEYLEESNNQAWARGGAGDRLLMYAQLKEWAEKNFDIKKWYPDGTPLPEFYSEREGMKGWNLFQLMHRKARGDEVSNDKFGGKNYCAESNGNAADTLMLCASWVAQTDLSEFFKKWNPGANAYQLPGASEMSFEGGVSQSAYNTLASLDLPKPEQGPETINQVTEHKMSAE

Compound in this assay: CC1(C)S[C@@H]2[C@H](NC(=O)[C@H](N)c3ccccc3)C(=O)N2[C@H]1C(=O)O [ampicillin]
In words: log2 fold change of tryptic peptide abundance, ligand vs vehicle (limited proteolysis) (log2 ratio); higher = more trypsin-susceptible (destabilized). The settings on record: ligand concentration: 10 uM; sample: E. coli crude lysate.
Take “UniProt P11446 (peptide sequence: GILETITCR, peptide start residue: 238)”: the log2 fold change is -0.306.
As for “UniProt P21170 (peptide sequence: SKFGLAATQVLQLVETLR, peptide start residue: 241)”, the log2 fold change was 0.406.
Then “UniProt P23883 (peptide sequence: DAGDSNMKR, peptide start residue: 255)”, with 0.488; and “UniProt P22939 (peptide sequence: HVPLDALER, peptide start residue: 168)”, with 0.104; and “UniProt P11289 (peptide sequence: GYAEGQKK, peptide start residue: 66)”, with 0.616.
“UniProt P21513 (peptide sequence: QAQQQTAETRESR, peptide start residue: 645)”: the log2 fold change is -1.29.
In the case of “UniProt P22106 (peptide sequence: FRFPYNTPTSK, peptide start residue: 483)”, the log2 fold change was 0.0935.
As for “UniProt P24169 (peptide sequence: MHEGVSGR, peptide start residue: 411)”, the log2 fold change turned out to be 0.36.
For “UniProt P19930 (peptide sequence: IPAYLSAK, peptide start residue: 84)”, the log2 fold change was -0.0149.
Then “UniProt P0CF88 (peptide sequence: GTINIVNGTPIHER, peptide start residue: 208)”, with 0.337; and “MurD (peptide sequence: STVTTLVGEMAK, peptide start residue: 117) (UniProt P14900)”, with 0.546.
In the case of “UniProt P23538 (peptide sequence: DSGVVSELFDER, peptide start residue: 715)”, the log2 fold change turned out to be 0.251.
Next, “UniProt P22256 (peptide sequence: VFEQENLLQK, peptide start residue: 314)”: 0.33; “UniProt P23843 (peptide sequence: LGMDRDIIVNKVK, peptide start residue: 321)”: -0.596.
In the case of “UniProt P22731 (peptide sequence: TTLLGTLCGDPRATSGR, peptide start residue: 45)”, the log2 fold change was -0.307.
For “UniProt P16700 (peptide sequence: THFTSGGELDKLLAAGRN, peptide start residue: 321)”, the log2 fold change was 0.428.
Then “UniProt P16926 (peptide sequence: ELLGSPLR, peptide start residue: 106)”, with 0.44; and “UniProt P16682 (peptide sequence: NLSETTKDK, peptide start residue: 238)”, with 0.078; and “UniProt P15288 (peptide sequence: EKGFHVER, peptide start residue: 42)”, with -0.683.
Take “UniProt P14294 (peptide sequence: ATDGLGTEATR, peptide start residue: 518)”: the log2 fold change was determined as 0.203.
As for “UniProt P13445 (peptide sequence: RFGLLGYEAATLEDVGR, peptide start residue: 277)”, the log2 fold change was -0.204.
Then “UniProt P0DSF4 (peptide sequence: GALLICPHCNK, peptide start residue: 36)”, with -0.107.
Next, “UniProt P18775 (peptide sequence: TIYEMTSELAKR, peptide start residue: 565)”: -0.228; “UniProt P11553 (peptide sequence: ASELLLVGGGSR, peptide start residue: 392)”: -0.368.
Next, “UniProt P15032 (peptide sequence: DGLQALHIAR, peptide start residue: 147)”: 0.919; “UniProt P0C0T5 (peptide sequence: WTSAQLLRPQALDLVSR, peptide start residue: 130)”: 0.188.
Consider “UniProt P22188 (peptide sequence: LDYSDRVTVAR, peptide start residue: 479)”, for which the log2 fold change was -0.0924.
Consider “UniProt P23524 (peptide sequence: DPLVTTSR, peptide start residue: 105)”, for which the log2 fold change came to 0.158.
Turning to “UniProt P13009 (peptide sequence: EAIHAVFLYYAIR, peptide start residue: 577)”, the log2 fold change came out at 0.285.
Consider “UniProt P12282 (peptide sequence: VESARDALTR, peptide start residue: 87)”, for which the log2 fold change turned out to be 0.139.
Regarding “UniProt P23917 (peptide sequence: YREEVPCYCGK, peptide start residue: 170)”, the log2 fold change is -0.066.
In the case of “UniProt P0CK95 (peptide sequence: WFSLTTR, peptide start residue: 436)”, the log2 fold change turned out to be 0.128.
“UniProt P18776 (peptide sequence: DLTPEVSFRR, peptide start residue: 29)”: the log2 fold change was -0.634.
As for “UniProt P0CF91 (peptide sequence: FDMMGFLR, peptide start residue: 209)”, the log2 fold change was -0.51.

The values are drawn from the supplement of paper PMC12819154, “High-throughput peptide-centric local stability assay extends protein–ligand identification to membrane proteins, tissues and bacteria” (Nature Structural & Molecular Biology, 2025).
